Test results as given in paper PMC10743020.
Results are given in words; binding and its absence hold for the method and conditions named. Binding seen in cells or lysates may run through a third protein. Some results given as binding are weak or reduced against the parent protein; the word gives no strength.

By UniProt entry, the sequences of proteins in these tests, tags left out. Residues count along the entry.
UniProt Q91W90, residues 34-417: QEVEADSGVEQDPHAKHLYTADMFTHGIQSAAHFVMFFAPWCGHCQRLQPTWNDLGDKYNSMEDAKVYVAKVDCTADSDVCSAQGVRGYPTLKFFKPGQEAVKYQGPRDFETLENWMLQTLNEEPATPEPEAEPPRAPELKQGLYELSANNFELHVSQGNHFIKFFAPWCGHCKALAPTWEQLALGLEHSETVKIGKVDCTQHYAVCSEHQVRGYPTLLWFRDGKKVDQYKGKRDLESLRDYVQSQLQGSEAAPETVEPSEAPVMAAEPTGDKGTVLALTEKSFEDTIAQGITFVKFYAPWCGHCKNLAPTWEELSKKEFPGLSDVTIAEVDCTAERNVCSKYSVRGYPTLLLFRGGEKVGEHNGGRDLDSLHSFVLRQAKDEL
UniProt P38647, residues 47-679: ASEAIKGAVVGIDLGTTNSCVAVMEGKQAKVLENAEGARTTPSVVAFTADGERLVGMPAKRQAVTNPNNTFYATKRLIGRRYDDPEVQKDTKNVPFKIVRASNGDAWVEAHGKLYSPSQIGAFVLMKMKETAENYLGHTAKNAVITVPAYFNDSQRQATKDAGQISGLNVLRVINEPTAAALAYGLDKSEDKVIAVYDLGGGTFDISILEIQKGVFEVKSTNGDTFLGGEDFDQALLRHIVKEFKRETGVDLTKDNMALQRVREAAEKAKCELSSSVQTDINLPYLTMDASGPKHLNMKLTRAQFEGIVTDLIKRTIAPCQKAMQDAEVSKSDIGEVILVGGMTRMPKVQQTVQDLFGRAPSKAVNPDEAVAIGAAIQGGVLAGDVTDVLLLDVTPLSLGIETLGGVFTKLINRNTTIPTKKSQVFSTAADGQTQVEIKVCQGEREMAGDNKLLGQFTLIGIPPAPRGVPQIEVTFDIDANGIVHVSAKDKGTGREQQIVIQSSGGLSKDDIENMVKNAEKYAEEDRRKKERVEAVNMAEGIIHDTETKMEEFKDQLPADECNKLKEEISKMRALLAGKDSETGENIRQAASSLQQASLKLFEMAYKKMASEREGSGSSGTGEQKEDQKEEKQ

Experiments:
[1] = biological target: Thioredoxin domain-containing 5 (TXNDC5) (mouse (endogenous in AML12)) (UniProt Q91W90); experiment: co-IP; AML12 WT and TXNDC5-KO lysates (RIPA) immunoprecipitated with anti-TXNDC5 or anti-PRDX6 antibody on protein A magnetic beads, overnight at 4 °C, PBS-T washes; Western blot of the eluates
[2] = biological target: T1, PRDX6 (mouse (endogenous in AML12)) (UniProt O08709); experiment: as above
T1 sequence: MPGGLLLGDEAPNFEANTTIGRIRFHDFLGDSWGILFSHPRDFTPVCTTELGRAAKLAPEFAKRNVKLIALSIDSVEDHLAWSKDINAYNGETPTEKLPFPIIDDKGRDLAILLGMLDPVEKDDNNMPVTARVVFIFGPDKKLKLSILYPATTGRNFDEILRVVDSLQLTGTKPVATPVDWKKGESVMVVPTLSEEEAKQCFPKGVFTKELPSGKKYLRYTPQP

binding [1] | binding [2] | Substance
binds | – | HSPA9 (from UniProt P38647 47-679)
– | binds | Thioredoxin domain-containing 5 (TXNDC5) (from UniProt Q91W90 34-417)
